PubChem BioAssay AID493246 – Drosophila RNAi Screening Center, 2011

- Aim: 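Genome-wide search for dsRNAs that reduce cell number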 (primary screen)
- Cell system: Drosophila Kc and S2R+ cells
- Reagent: long dsRNA against Drosophila genes
- Measured: 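Cell number per well after knock-down, printed as raw plate values; calls were based on per-plate z-scores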
- Scale: Kc cell number and S2R+ cell number: higher = more cells remaining
- Active means: 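Counted as a hit if cell number falls by a z-score of at least 3 within its plate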
In all, the deposit lists about 21,000 reagents; this is a random part of those that have a named target and a result. Of all reagents, 429 (2%) are marked active. 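Values are raw and not normalised between plates; calls rest on per-plate z-scores that were not deposited.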 Entries without a mark were called inactive. The record does not give: the amount of reagent, the time to read-out.

gene | DRSC id | Kc cell number, rep 1 | Kc cell number, rep 2 | S2R+ cell number, rep 1 | S2R+ cell number, rep 2
Cht10 | DRSC03766 | 1.53e6 | 1.63e6 | 1.32e6 | 3.37e5
Cht10 | DRSC03767 | 1.31e6 | 1.36e6 | 1.06e6 | 1.11e6
Cht10 | DRSC03768 | 1.43e6 | 1.56e6 | 1.31e6 | 3.41e5
CG32473 | DRSC14352 | 1.46e6 | 1.48e6 | 1.06e6 | 1.20e6
CG32473 | DRSC16446 | 1.69e6 | 1.61e6 | 1.30e6 | 1.42e6
CG8907 | DRSC16453 | 1.47e6 | 1.60e6 | 1.09e6 | 1.14e6
CG10505 | DRSC04075 | 1.58e6 | 1.66e6 | 1.27e6 | 3.08e5
CG3634 | DRSC11747 | 1.21e6 | 1.36e6 | 1.24e6 | 1.26e6
pros | DRSC12856 | 1.52e6 | 1.67e6 | 1.01e6 | 1.28e6
pros | DRSC17032 | 1.57e6 | 1.47e6 | 1.22e6 | 1.29e6
Snap25 | DRSC21228 | 1.70e6 | 1.65e6 | 1.12e6 | 1.22e6
Snap25 | DRSC21236 | 1.53e6 | 1.65e6 | 1.02e6 | 1.18e6
CG8326 | DRSC20103 | 1.62e6 | 1.65e6 | 1.02e6 | 1.19e6
for | DRSC00195 | 1.38e6 | 1.37e6 | 8.88e5 | 1.05e6
for | DRSC00818 | 1.31e6 | 1.65e6 | 1.25e6 | 1.12e6
Dph2 | DRSC16222 | 1.49e6 | 1.54e6 | 1.20e6 | 1.32e6
Dsk | DRSC12347 | 1.36e6 | 1.38e6 | 1.30e6 | 1.37e6
MAGE | DRSC12504 | 1.58e6 | 1.64e6 | 1.33e6 | 1.35e6
Atac3 | DRSC08579 | 1.41e6 | 1.32e6 | 9.72e5 | 1.22e6
Acadvl | DRSC07022 | 1.37e6 | 1.38e6 | 1.16e6 | 1.16e6

Copied from the listing for reference:
gene | DRSC id | Kc cell number, rep 1 | Kc cell number, rep 2 | S2R+ cell number, rep 1 | S2R+ cell number, rep 2
CG8326 | DRSC20103 | 1.62e6 | 1.65e6 | 1.02e6 | 1.19e6
for | DRSC00195 | 1.38e6 | 1.37e6 | 8.88e5 | 1.05e6
for | DRSC00818 | 1.31e6 | 1.65e6 | 1.25e6 | 1.12e6
Dph2 | DRSC16222 | 1.49e6 | 1.54e6 | 1.20e6 | 1.32e6
Dsk | DRSC12347 | 1.36e6 | 1.38e6 | 1.30e6 | 1.37e6
MAGE | DRSC12504 | 1.58e6 | 1.64e6 | 1.33e6 | 1.35e6
Atac3 | DRSC08579 | 1.41e6 | 1.32e6 | 9.72e5 | 1.22e6
Acadvl | DRSC07022 | 1.37e6 | 1.38e6 | 1.16e6 | 1.16e6

The results go on.
gene | DRSC id | Kc cell number, rep 1 | Kc cell number, rep 2 | S2R+ cell number, rep 1 | S2R+ cell number, rep 2
CG7276 | DRSC10797 | 1.52e6 | 1.56e6 | 1.38e6 | 1.42e6
alphaCOP | DRSC08706 | 1.50e6 | 1.57e6 | 8.26e5 | 9.24e5
gom | DRSC04690 | 1.59e6 | 1.72e6 | 1.41e6 | 5.58e5
ninaC | DRSC03579 | 1.19e6 | 1.24e6 | 5.48e5 | 9.42e5
Fur1 | DRSC13707 | 1.57e6 | 1.70e6 | 1.11e6 | 1.14e6
Fur1 | DRSC16676 | 5.61e5 | – | 8.52e5 | –
mRpS18A | DRSC14369 | 1.31e6 | 1.43e6 | 1.06e6 | 1.11e6
CG10669 | DRSC14261 | 1.88e6 | 1.86e6 | 1.05e6 | 1.15e6
CG34001 | DRSC09042 | 1.44e6 | 1.50e6 | 1.14e6 | 1.29e6
amd | DRSC02608 | 1.62e6 | 1.70e6 | 1.23e6 | 3.01e5
amd | DRSC03483 | 1.49e6 | 1.53e6 | 1.21e6 | 3.49e5
CG15023 | DRSC08477 | 1.64e6 | 1.59e6 | 1.03e6 | 1.18e6
Gtpx | DRSC08221 | 1.41e6 | 1.51e6 | 1.38e6 | 1.01e6
CG14464 | DRSC07760 | 1.44e6 | 1.33e6 | 9.71e5 | 1.21e6
Sgs5bis | DRSC16263 | 1.40e6 | 1.64e6 | 1.09e6 | 9.94e5
Ac78C | DRSC11467 | 1.38e6 | 1.50e6 | 1.08e6 | 1.26e6
Ac78C | DRSC11602 | 1.53e6 | 1.61e6 | 1.33e6 | 1.43e6
Ac78C | DRSC11619 | 1.48e6 | 1.52e6 | 1.32e6 | 1.32e6
Rpt5 | DRSC16842 | 8.04e5 (active) | 1.07e6 | 7.63e5 | 9.07e5
CG14625 | DRSC18633 | 1.48e6 | 1.49e6 | 1.08e6 | 1.24e6
CG42336 | DRSC05273 | 1.56e6 | 1.61e6 | 1.07e6 | 1.17e6
CG42336 | DRSC06332 | 1.55e6 | 1.66e6 | 1.36e6 | 1.43e6
CG42336 | DRSC06333 | 1.67e6 | 1.63e6 | 1.08e6 | 1.26e6
CG33514 | DRSC08471 | 1.35e6 | 1.31e6 | 1.05e6 | 1.20e6
CG33514 | DRSC08472 | 1.68e6 | 1.56e6 | 1.08e6 | 1.20e6
wake | DRSC16148 | 1.60e6 | 1.54e6 | 9.95e5 | 1.07e6
wake | DRSC16149 | 1.52e6 | 1.47e6 | 9.96e5 | 1.08e6
Pyroxd1 | DRSC02098 | 1.57e6 | 1.62e6 | 1.21e6 | 3.06e5
CG32087 | DRSC10806 | 1.32e6 | 1.42e6 | 1.21e6 | 1.28e6
Flad1 | DRSC19898 | 5.86e5 | – | 8.59e5 | –
CG14797 | DRSC17955 | 1.44e6 | 1.62e6 | 1.06e6 | 1.19e6
CG13847 | DRSC14697 | 1.19e6 (active) | 1.46e6 | 6.72e5 | 7.67e5
CG7079 | DRSC16192 | 1.26e6 | 1.29e6 | 1.05e6 | 1.20e6
drk | DRSC07606 | 1.06e6 | 1.07e6 | 9.18e5 | 9.72e5
CG6443 | DRSC02958 | 9.65e5 | 1.09e6 | 8.58e5 | 7.03e5
Wdr81 | DRSC02985 | 1.33e6 | 1.38e6 | 1.12e6 | 1.22e6
betaCOP | DRSC20312 | 1.73e6 | 1.78e6 | 7.86e5 | 9.20e5
RpS20 | DRSC16836 | 8.50e5 | 8.64e5 | 7.45e5 | 8.60e5
RpS12 | DRSC11270 | 1.05e6 | 1.16e6 | 9.31e5 | 8.13e5
